PubChem BioAssay AID1259254 | NCATS – 2017

Aim: 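Finding genes that stop cells copying their DNA twice in one cycle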 (primary screen)
System: human HCT116 colorectal cancer cells
Reagents: single siRNA against human genes
Time to read-out: 3 days
Detection: 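Imaged Hoechst DNA stain sorts each cell into a cycle phase by DNA amount; per plate, G2 fraction set to 0% for non-targeting and 100% for GMNN siRNA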
Reading the numbers: G2 robust z-score: higher = more G2 cells, more excess DNA replication
Hit rule: 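An siRNA counts as active if its G2 robust z-score lies at least 5 MADs above the screen median; here such calls match roughly 38% of GMNN control or more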
This is one part, drawn at random, of about 59,000 deposited reagents. About 1,550 of them (2.6%) count as active. 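G2 share is only a proxy for re-replication; each gene was hit by three separate siRNAs, and active genes were retested.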 Entries without a mark were called inactive. The numbers tell different reagents against one gene apart. Further read-outs or replicates are left out here. Not given: the amount of reagent.

PARP1 (poly(ADP-ribose) polymerase 1) #1 showed G2 robust z-score 2.57.
PARP1 (poly(ADP-ribose) polymerase 1) #2 gave G2 robust z-score 1.75.
Knock-down of PARP1 (poly(ADP-ribose) polymerase 1) #3 came out at: G2 robust z-score -0.166.
With knock-down of SNX4 (sorting nexin 4) #1 the results were G2 robust z-score -0.579.
For SNX4 (sorting nexin 4) #2, the entry reads G2 robust z-score -1.24.
SNX4 (sorting nexin 4) #3 showed G2 robust z-score 0.304.
With knock-down of INPP5F (inositol polyphosphate-5-phosphatase F) #1, the screen gave G2 robust z-score -1.18.
Against INPP5F (inositol polyphosphate-5-phosphatase F) #2 the deposit lists G2 robust z-score -0.751.
With knock-down of INPP5F (inositol polyphosphate-5-phosphatase F) #3, the record shows G2 robust z-score -0.521.
Silencing of ATP8B5P (ATPase phospholipid transporting 8B5, pseudogene) #1 gave: G2 robust z-score -0.942.
For ATP8B5P (ATPase phospholipid transporting 8B5, pseudogene) #2 the deposit lists G2 robust z-score -0.991.
With knock-down of ATP8B5P (ATPase phospholipid transporting 8B5, pseudogene) #3, the record shows G2 robust z-score 0.0526.
Silencing of LOC729995 (retired record) #1 came out at: G2 robust z-score -0.801.
Against LOC729995 (retired record) #2 the deposit lists G2 robust z-score -0.481.
LOC729995 (retired record) #3 showed G2 robust z-score -0.345.

2 entries from above, set out differently:
target	reagent no.	G2 robust z-score
PARP1 (poly(ADP-ribose) polymerase 1)	3	-0.166
SNX4 (sorting nexin 4)	1	-0.579

Further reagents follow.
Silencing of FECH (ferrochelatase) #1 came out at: G2 robust z-score -1.51.
Against FECH (ferrochelatase) #2 the deposit lists G2 robust z-score -0.98.
With knock-down of FECH (ferrochelatase) #3 the results were G2 robust z-score -0.124.
ZC3H7A (zinc finger CCCH-type containing 7A) #1 scored G2 robust z-score -0.533.
Depletion of ZC3H7A (zinc finger CCCH-type containing 7A) #2 gave: G2 robust z-score -0.847.
Against ZC3H7A (zinc finger CCCH-type containing 7A) #3 the deposit lists G2 robust z-score -0.286.
Against MOB3A (MOB kinase activator 3A) #1 the deposit lists G2 robust z-score 1.22.
Depletion of MOB3A (MOB kinase activator 3A) #2 came out at: G2 robust z-score -0.344.
Knock-down of MOB3A (MOB kinase activator 3A) #3 gave: G2 robust z-score -0.196.
